Measurements taken from patent US20230371508A1, “COMPOSITIONS AND METHODS FOR KILLING INSECT AND NON-INSECT PESTS” (The United States of America, as represented by the …, priority 2018, published 2023).

Experiments:
[1] = system: H. halys nymphs; assay: Nymphicidal toxicity, treated filter paper in glass vial; type: in vivo; conditions: probit slope
Description: Toxicities of MB, some compounds of formula 1, and commercial pesticides on H. halys nymphs: The bioassays were carried out in glass vials (20 mL), following a published procedure (Nielsen, A. L., et al., J. Econ. Entomol., 101: 1439-1442 (2008)). Filter paper was cut into round shape pieces (2.4 cm diameter). 50 μL acetone solution of one derivative or commercial pesticide with different concentrations was loaded onto the filter paper evenly, and the filter paper was dried for 1 min and then put into the bottom of vial. A small piece of green bean was put on the filter paper in the vial as food source. Different stages of H. halys nymphs were introduced into the vial and capped with a cotton ball. For each stage, 30 nymphs were used for each amount. For the nymphs of the first instar, 10 nymphs were put into 1 vial. For the nymphs of the second and third instar, 5 nymphs were put into 1 vial. For the nymphs of the fourth instar, 3 nymphs were put into 1 vial. For the nymphs of the fifth instar, 2 nymphs were put into 1 vial. The mortality was assessed after 24 hr.

[2] = system: L. dispar larvae; assay: Larvicidal toxicity, treated filter paper in Petri dish; type: in vivo; conditions: probit slope
Description: Toxicities of MB and some compounds of formula 1 on L. dispar larvae: The bioassays were carried out in plastic Petri dish loaded with filter paper, following a published procedure (Nielsen 2008). 600 μL acetone solution of one derivative with different concentrations was loaded onto the filter paper (90 mm diameter) evenly, and the filter paper was dried for 2 min and then put into the bottom of Petri dish. 10 L. dispar larvae were put onto the Petri dish and covered with a lid. 30 larvae were used for each amount. The mortality was assessed after 24 hr.

[3] = system: H. halys eggs; assay: Ovicidal toxicity, direct spray on eggs; type: in vivo; conditions: probit slope
Text: Ovicidal toxicities of MB and some compounds of formula 1: The aqueous solutions of one of the compounds of formula 1 with designated concentrations with different concentrations of active ingredient (AI) were separately stored in glass spray bottles according to a published procedure (Cuthbertson 2014). The eggs (10 for H. halys and 100 for P. xylostella) were laid on filter papers in Petri dishes. Different aqueous insecticidal solutions were sprayed on the surfaces of different eggs three times (˜0.5 mL) to completely cover the treatment areas. Then the Petri dishes were covered with lids and maintained in a fume hood for 10 days. The Petri dishes were then inspected for presence of nymph/larvae development or numbers of unhatched eggs.

[4] = system: S. invicta workers; assay: Fumigant toxicity in sealed glass flask; type: in vivo, Solenopsis invicta
Description: A 250-ml glass flask (the whole volume is 280 ml) was used to house worker ants in fumigant toxicity bioassays. Two micro-liter of acetone solution of the tested compound was applied onto a paraffin film, which was used to seal the flask with ants. The treated spot of the paraffin film faced the inside of the flask. The upper part of the flask was coated with Fluon® to prevent ants from contacting the test material. Two experiments were conducted. […] LC50 value was established using 5 dosages. Each dosage was replicated 3 times for each of 3 colonies. Each replicate consisted of 15 to 26 ants. Ants that could not stand by themselves were considered dead. Dead ants were counted after 24 h.

SMILES	Slope ± SE ([1]; 5th stage nymphs)	Slope ± SE [2]	Slope ± SE [3]	Slope ± SE ([1]; 4th stage nymphs)	Slope ± SE ([1]; 2nd stage nymphs)	Slope ± SE ([1]; 3rd stage nymphs)	Slope (mean ± SE) ([4]; colony 1)	Slope (mean ± SE) ([4]; colony 2)	Slope (mean ± SE) ([4]; colony 3)
CCCCCCOC(=O)c1ccccc1 [nHB, n-hexyl benzoate]	1.679 ± 0.785	2.012 ± 0.843	0.033 ± 0.216						
O=C(OCc1ccccc1)c1ccccc1 [BB, benzyl benzoate]		2.858 ± 0.535	0.016 ± 0.213	1.691 ± 0.485					
COC(=O)c1ccccc1OC [M2MOB, methyl 2-methoxybenzoate]		2.971 ± 0.487	3.724 ± 0.816		4.393 ± 0.657				
CC(C)COC(=O)c1ccccc1 [iBB, iso-butyl benzoate]		2.683 ± 0.386	0.016 ± 0.214			1.821 ± 0.487			
COC(=O)c1ccccc1[N+](=O)[O-] [M2NB, methyl 2-nitrobenzoate]		1.168 ± 0.545	2.028 ± 0.389			3.175 ± 0.615			
COC(=O)c1ccccc1Cl [M2CB, methyl 2-chlorobenzoate]		7.291 ± 0.868	3.724 ± 0.816		5.568 ± 0.849		6.35 ± 0.71	4.62 ± 0.50	7.24 ± 0.68
CCCCCOC(=O)c1ccccc1 [nPeB, n-pentyl benzoate]		2.466 ± 0.354	0.184 ± 0.207			1.884 ± 0.809			
C=COC(=O)c1ccccc1 [VB, vinyl benzoate]		10.082 ± 1.640	2.974 ± 0.620		6.245 ± 1.155		9.46 ± 0.87	25.99 ± 2.39	16.07 ± 2.18
COC(=O)c1cccc(OC)c1 [M3MOB, methyl 3-methoxybenzoate]		8.073 ± 1.126	2.327 ± 0.566			3.549 ± 0.478	6.25 ± 0.84	5.24 ± 0.56	5.03 ± 0.51
CC(COc1ccc(Oc2ccccc2)cc1)Oc1ccccn1 (stereo not shown) [PF, pyriproxyfen, reference compound]	2.315 ± 0.327	2.429 ± 0.263				3.018 ± 0.450			
CCCOC(=O)c1ccccc1 [nPrB, n-propyl benzoate]		2.576 ± 0.402	0.571 ± 0.206			3.427 ± 0.614			
CCCCOC(=O)c1ccccc1 [nBB, n-butyl benzoate]		2.264 ± 0.385	0.369 ± 0.206	2.752 ± 0.593					
C/C(=N\C#N)N(C)Cc1ccc(Cl)nc1 [AP, acetamiprid, reference compound]	3.164 ± 0.394	3.150 ± 0.419			2.078 ± 0.325	1.750 ± 0.272			
COC(=O)c1ccccc1C [M2MB, methyl 2-methylbenzoate]		6.671 ± 0.766	1.144 ± 0.247		4.165 ± 0.536				
COC(=O)c1cccc(C)c1 [M3MB, methyl 3-methylbenzoate]		4.693 ± 0.540	2.128 ± 0.399	3.606 ± 0.618			7.55 ± 0.73	10.52 ± 1.09	9.72 ± 0.96
